Measured values taken from publication PMC9615918.
These are yes or no findings as the source states them, for the method shown. Binding seen in cells or lysates may run through a third protein. Some binding calls cover weakened binding; strength is not graded here.

Sequences of proteins named here, by UniProt entry; tags and fusion partners are left off.
UniProt Q13546: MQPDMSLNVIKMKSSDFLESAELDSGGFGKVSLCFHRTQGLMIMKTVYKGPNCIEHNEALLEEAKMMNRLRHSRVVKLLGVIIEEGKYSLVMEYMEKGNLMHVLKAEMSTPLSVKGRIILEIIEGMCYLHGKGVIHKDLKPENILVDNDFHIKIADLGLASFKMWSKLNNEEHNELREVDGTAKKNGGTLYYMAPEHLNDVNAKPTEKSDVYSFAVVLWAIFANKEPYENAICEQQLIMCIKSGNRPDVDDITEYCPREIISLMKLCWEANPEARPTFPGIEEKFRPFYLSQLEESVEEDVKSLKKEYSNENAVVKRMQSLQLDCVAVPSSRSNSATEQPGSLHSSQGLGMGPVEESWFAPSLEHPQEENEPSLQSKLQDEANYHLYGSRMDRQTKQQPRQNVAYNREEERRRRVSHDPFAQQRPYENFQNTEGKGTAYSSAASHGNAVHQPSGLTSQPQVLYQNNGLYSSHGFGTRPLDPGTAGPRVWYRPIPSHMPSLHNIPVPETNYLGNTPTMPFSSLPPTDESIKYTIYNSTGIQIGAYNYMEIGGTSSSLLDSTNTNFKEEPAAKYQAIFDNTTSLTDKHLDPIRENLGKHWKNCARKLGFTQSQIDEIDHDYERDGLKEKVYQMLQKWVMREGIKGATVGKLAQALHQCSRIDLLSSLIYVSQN

How the values were obtained:
[1] = molecular target: Flag-tagged RIPK1 (Receptor Interacting Protein Kinase I) (UniProt Q13546); experiment: co-IP; HEK 293T co-transfected with Flag-RIPK1 and DENV plasmids; RIPA lysate (100 ug) on anti-Flag-coated protein G Dynabeads, 30 min at RT; Western blot
[2] = molecular target: DENV NS3 (NS3-V5, expressed without NS2B, DENV2 strain New Guinea C) (DENV2 strain New Guinea C) (UniProt P14340); experiment: co-IP

Row | Substance | binding [1] | binding [2]
1 | DENV NS3 (NS3-V5, expressed without NS2B, DENV2 strain New Guinea C) (from UniProt P14340 1476-2093) | binds | –
2 | Flag-tagged RIPK1 (Receptor Interacting Protein Kinase I) (from UniProt Q13546 1-671) | – | binds
